Measured values published in article PMC7862700.
This is a selection; strong and weak results do not stand in their true shares. At the low end of the ranking the order means little.

Target: SPI1 (UniProt P17947)
Experiment: DAPPL (digital affinity profiling via proximity ligation, sequencing)
Conditions: 10 mM Tris-HCl pH 7.5, 50 mM NaCl, 1 mM DTT, 4% glycerol, room temperature, 30 min; GST-TFs on glutathione beads, 16-mer random dsDNA library, 0.1% …; high values mean tight binding; double strand, one strand shown; scale: fold enrichment (6-mer frequency, TF over GST control)

Sequence	binding signal
CGGCCC	0.97
TGTCTA	1.09
CCCATC	1.11
CGGGCT	0.946
TATGTG	1
GATCAT	0.929
TAAACT	1.15
TCGACG	0.982
AGTTTT	0.939
CTACCC	1.31
ACTTGA	0.981
ATCAAG	0.897
CAGATC	0.863
CATGCG	0.978
AATTTT	1.3
AAGTGC	1.67
AGAATC	0.938
CACGGA	0.951
GGCCCT	0.973

Sequence	binding signal
CGTTGG	0.944
GATATT	0.98
GAATGA	0.982
GAAGAT	0.833
TCTCAG	1.55
ACGTTT	1.12
GCAAAG	0.921
CTGGGG	0.765
TTGAGC	0.954
TCCTAG	1.12
GCACGA	0.986
CTGAAC	1.36
TGAAGG	0.909
AGAAAA	1.11
TCTATT	1.28
TATAAT	1.15
TGCGAA	1.26
TCTGGT	1.31
TCGCGA	0.854

Random excerpt: 2 entries already listed
Sequence	binding signal
GCAAAG	0.921
AGAATC	0.938
